# Source: patent publication EP0544958A1, “Cephalosporin compounds and processes for preparing the same” (TANABE SEIYAKU CO., LTD., priority 1991, dated 1993)
# Where a name gives a salt, the structure may show the parent alone. At least one structure is not confirmed: it was looked up by name or label, or the drawing left a doubt.
# System: clinical isolates of P. aeruginosa
# Test: antibacterial activity (90 % inhibitory concentration) against clinical isolates
# Format: cell-based
# Conditions: relative to ceftazidime
smiles,measurement,value
"Cc1c(N)ccc[n+]1CC1=C(C(=O)[O-])N2C(=O)[C@@H](NC(=O)/C(=N\OC(C(=O)O)c3ccc(O)c4[nH]c(=O)ccc34)c3csc(N)n3)[C@H]2SC1 (stereo partly drawn) [Example 27, 7β-{(Z)-2-(2-aminothiazol-4-yl)-2-[(8-hydroxy-2-oxo-1H-quinolin-5-yl)(carboxy)methyloxyimino]acetamido}-3-(3 amino-2-methyl-1-pyridiniomethyl)-3-cephem-4-carboxylic acid sodium salt]","antibacterial activity (90 % inhibitory concentration), superior to ceftazidime",about twice
